Measurements from “University of Dundee, Small-Polar-MMV Screening Library” (2021), ChEMBL document CHEMBL3988442.

Sequences of proteins named here, by UniProt entry; tags and fusion partners are left off. Residues count along the entry.
UniProt A4I591, 1-473: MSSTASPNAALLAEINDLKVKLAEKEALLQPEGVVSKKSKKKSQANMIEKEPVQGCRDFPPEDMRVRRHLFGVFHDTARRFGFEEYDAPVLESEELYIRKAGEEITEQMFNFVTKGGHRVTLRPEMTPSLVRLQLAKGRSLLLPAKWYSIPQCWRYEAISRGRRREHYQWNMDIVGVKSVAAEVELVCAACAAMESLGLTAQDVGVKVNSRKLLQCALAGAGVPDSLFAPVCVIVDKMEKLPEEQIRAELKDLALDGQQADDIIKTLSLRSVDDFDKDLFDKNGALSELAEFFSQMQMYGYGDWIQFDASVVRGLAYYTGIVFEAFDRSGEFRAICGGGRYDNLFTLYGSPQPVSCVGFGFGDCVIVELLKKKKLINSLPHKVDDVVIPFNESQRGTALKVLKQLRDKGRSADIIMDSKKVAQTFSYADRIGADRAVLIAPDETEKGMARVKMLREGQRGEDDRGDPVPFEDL
UniProt Q8IDJ8, 1-583: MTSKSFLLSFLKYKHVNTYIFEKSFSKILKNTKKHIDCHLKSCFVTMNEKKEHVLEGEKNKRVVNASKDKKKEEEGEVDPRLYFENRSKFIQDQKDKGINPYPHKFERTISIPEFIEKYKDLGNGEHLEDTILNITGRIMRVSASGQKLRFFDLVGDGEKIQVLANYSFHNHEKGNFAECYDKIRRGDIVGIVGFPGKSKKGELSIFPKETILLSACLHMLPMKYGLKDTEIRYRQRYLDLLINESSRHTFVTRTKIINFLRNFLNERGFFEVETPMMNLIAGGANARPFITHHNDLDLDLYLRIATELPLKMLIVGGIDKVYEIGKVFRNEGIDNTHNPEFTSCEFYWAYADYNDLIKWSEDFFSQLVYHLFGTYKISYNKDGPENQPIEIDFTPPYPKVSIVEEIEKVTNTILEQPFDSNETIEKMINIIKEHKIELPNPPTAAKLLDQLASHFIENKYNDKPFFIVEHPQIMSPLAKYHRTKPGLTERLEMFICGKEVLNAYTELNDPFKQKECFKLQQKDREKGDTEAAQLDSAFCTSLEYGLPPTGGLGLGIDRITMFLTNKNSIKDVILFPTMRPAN

The filed quantity is “Percent Effect” (%).
How 0% and 100% were set is not recorded. Most values in the screen are low, and negative values occur.
Compounds were drawn at random from those tested, without regard to their results.

LiHisRS: 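Enzyme assay of histidyl-tRNA synthetase; the read-out is not stated. Target: Histidine-tRNA ligase, Leishmania infantum (UniProt A4I591). Compounds at 30 µM. The record gives no direction; compounds that gave an IC50 in retests scored well above the rest, so higher reads as stronger inhibition. The assay is labelled LdHisRS but filed under L. infantum. Size under these conditions: about 69,000 compounds, about 410 of them at 50% or above in at least one test.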
PfKRS1: 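Enzyme assay of the cytosolic lysyl-tRNA synthetase in 384-well plates, read by luminescence. Target: Lysine-tRNA ligase, Plasmodium falciparum 3D7 (UniProt Q8IDJ8). Compounds at 30 µM. Direction is inferred from only a few compounds that gave an IC50; most scored high, so higher reads as stronger inhibition. Size under these conditions: about 69,000 compounds, about 49 of them at 50% or above in at least one test.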

- CS(=O)(=O)CCn1ccc(NC(=O)Cc2ccccc2Cl)n1 : LiHisRS: 7.865%; PfKRS1: 8.023%
- O=C(CCc1ccncc1)N1CCc2c(ncnc2N2CCOCC2)C1 : LiHisRS: 24.24%; PfKRS1: -6.157%
- O=C(Nc1ccc(CCN2CCC(O)CC2)cc1)Nc1cccnc1 : LiHisRS: 17.31%; PfKRS1: 5.527%
- CCn1c(C)cc(C(=O)Nc2ccccc2CN(C)C(C)=O)c1C : LiHisRS: 19.54%; PfKRS1: 3.384%
- COc1ccc(-c2nnc([C@H]3CCN(C4CCC4)C3)o2)cc1 : LiHisRS: 14.86%; PfKRS1: 2.346%
- Cc1cc(C2CCCN2C(=O)CN2C(=O)OC(C)(C)C2=O)on1 (configuration not stated) : LiHisRS: 20.41%; PfKRS1: -0.5619%
- Cc1cnc(N)c(C(=O)C2CCN(C(=O)C3CCC3)CC2)c1 : LiHisRS: -4%; PfKRS1: -0.1749%
- Cc1cc(CN2CCO[C@H]3[C@H](OCc4csc(C)n4)CC[C@@H]32)no1 : LiHisRS: 4.425%; PfKRS1: 2.955%
- CCOCCC(=O)N1CCCC(c2ncc[nH]2)C1 (configuration not stated) : LiHisRS: 15.38%; PfKRS1: 3.002%
- O=C(NCCNc1ncccn1)C1CCN(CC(F)(F)F)CC1 : LiHisRS: 16.67%; PfKRS1: -2.312%
- COC(=O)[C@H](CCSC)NC(=O)Cc1c(C)nn(-c2ccccc2)c1C : LiHisRS: 5%; PfKRS1: -0.5901%
- Cc1cccc(CN2C[C@H](NS(C)(=O)=O)[C@@H]3OCCC[C@@H]32)n1 : LiHisRS: 1.887%; PfKRS1: 0.3322%
- O=S(=O)(C1CC1)N1CCc2ncnc(-c3ccsc3)c2CC1 : LiHisRS: 17.95%; PfKRS1: 6.945%
- Cn1cc(-c2nc(CN3CCn4c(nnc4C4CC4)C3)cs2)cn1 : LiHisRS: -15.15%; PfKRS1: -0.1257%
- Cn1cnnc1SCC(=O)N1C[C@H]2CC[C@@H]1CN(Cc1cccnc1)C2 : LiHisRS: 4.301%; PfKRS1: 6.532%
- CCc1c(C(=O)Nc2ccc(F)c(C(=O)NC)c2)cnn1CC(C)C : LiHisRS: 8.235%; PfKRS1: 0.2663%
- CCOC(=O)Cn1ccc2cc(NC(=O)N3CCSCC3)ccc21 : LiHisRS: 6.806%; PfKRS1: -0.05652%
- CC(c1ccncc1)N(C)C(=O)NCCOc1ccc(C#N)cc1 (configuration not stated) : LiHisRS: 7.143%; PfKRS1: -7.62%
- CNc1cc(-c2ccncc2)ncn1 : LiHisRS: 14.29%; PfKRS1: 0.9252%
- CCN(CC)CC1CN(CCc2ccccc2)Cc2nccn2C1 (configuration not stated) : LiHisRS: 13.33%; PfKRS1: -3.282%
- N[C@@H]1c2ccccc2C2(CCN(c3cc(C(F)(F)F)ccn3)CC2)[C@H]1O : LiHisRS: 25.3%; PfKRS1: 1.824%
- c1ccc(SCCN2CCN(CCn3cncn3)CC2)cc1 : LiHisRS: 3.125%; PfKRS1: 4.132%
- CC(=O)N1CC2(CCN(C(=O)C3CC3)CC2)c2cc(C)ccc21 : LiHisRS: -7.895%; PfKRS1: 6.206%
- O=C(COc1ccccc1)NCC1CCN(Cc2ccsc2)CC1 : LiHisRS: 13.48%; PfKRS1: -10.43%
- Cc1cccc(CN2C[C@@H]3CN(C(=O)c4ccnnc4)C[C@@H]3C2=O)c1 : LiHisRS: 28.57%; PfKRS1: 12.77%
- CN1CCN(c2ccccc2CNC(=O)Cc2cccc(F)c2)CC1 : LiHisRS: 4.286%; PfKRS1: -10.46%
- CC(C)Cc1noc(CC2CCS(=O)(=O)C2)n1 (configuration not stated) : LiHisRS: 15.69%; PfKRS1: 6.537%
- Cc1ocnc1C(=O)N1CCN(C(=O)CC(C)C)[C@@H]2CS(=O)(=O)C[C@@H]21 : LiHisRS: 6.667%; PfKRS1: -0.1101%
- CC(C)(C)n1ncc(NCc2ccccc2)c(Cl)c1=O : LiHisRS: -3.947%; PfKRS1: 0.4907%
- Cc1occc1CNC(=O)Nc1ccc2nc(N3CCOCC3)oc2c1 : LiHisRS: 19.35%; PfKRS1: 1.599%
- COc1cccc(-c2noc(C3CCN(Cc4ccc(C)cc4)C3)n2)c1 (configuration not stated) : LiHisRS: -17.14%; PfKRS1: 1.221%
- Cc1noc(C(C)N(C)Cc2ccco2)n1 (configuration not stated) : LiHisRS: 10%; PfKRS1: -3.907%
- CC(NC1CCSCC1)c1ccccc1-n1cccn1 (configuration not stated) : LiHisRS: 17.07%; PfKRS1: 3.714%

2 of the entries, repeated:

| Compound | LiHisRS | PfKRS1 |
|---|---|---|
| `Cc1cc(C2CCCN2C(=O)CN2C(=O)OC(C)(C)C2=O)on1` (configuration not stated) | 20.41% | -0.5619% |
| `CC(C)Cc1noc(CC2CCS(=O)(=O)C2)n1` (configuration not stated) | 15.69% | 6.537% |